# Experimental data: PubChem BioAssay AID1259308 (NCATS, 2017)
# Test: 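Genes whose loss raises luciferase production in HEK293 cells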 (primary screen)
# Cell system: human HEK293 embryonic kidney cells stably expressing firefly luciferase (HEK-CMV-Luc2-Hygro)
# Reagents: single siRNA against human genes, 0.8 pmol siRNA per well
# Duration: 72 h
# Detection: 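Reporter luminescence and viable-cell signal on separate replicate plates, given as percent of non-targeting control and median/MAD z-scores, plus per-cell luciferase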
# Reading the numbers: total luciferase, z-score and total luciferase, % of control: higher = more reporter protein produced; luciferase per cell, z-score: higher = more reporter output per viable cell; viable cells, % of control: higher = more viable cells
# Active means: 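An siRNA counts as active if its total luciferase robust z-score exceeds 3; genes with two or more such siRNAs out of three were retested with fresh siRNAs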
# Meaning of the calls: active = raised luciferase; inactive = no rise
# Shown is an unselected part of about 59,000 reagents tested. About 1,510 of all reagents (2.6%) count as active. 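Calls use total luciferase alone and ignore viability, so some active siRNAs may act by altering cell number.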 Entries without a mark were called inactive. Reagents against one gene are numbered here.
gene knocked down,siRNA no.,"total luciferase, z-score","total luciferase, % of control","luciferase per cell, z-score","viable cells, % of control"
SMIM22 (GeneID 440335),1,-1.51,51.8,-1.4,83.7
SMIM22 (GeneID 440335),2,-1.32,55.7,-1.36,89
SMIM22 (GeneID 440335),3,-2.03,41.6,-1.63,71.4
BST1 (GeneID 683),1,1.84,119,0.895,105
BST1 (GeneID 683),2,0.548,92.8,2.17,58.6
BST1 (GeneID 683),3,0.427,90.4,-0.114,104
SFR1P2 (GeneID 730792),1,1.21,106,0.823,95.3
SFR1P2 (GeneID 730792),2,0.889,99.6,0.478,98.1
SFR1P2 (GeneID 730792),3,-0.15,78.9,-0.841,110
MRPS26 (GeneID 64949),1,-0.619,69.6,-0.918,99
MRPS26 (GeneID 64949),2,-0.572,70.5,0.186,75
MRPS26 (GeneID 64949),3,-1.86,44.8,-1.63,77
DTX3L (GeneID 151636),1,2.77,137,1.42,105
DTX3L (GeneID 151636),2,-0.576,70.4,-0.483,89.4
DTX3L (GeneID 151636),3,-0.0275,81.3,-0.593,106
ZBTB25 (GeneID 7597),1,0.413,90.1,0.537,87.4
ZBTB25 (GeneID 7597),2,0.0938,83.8,-0.0769,95.5
ZBTB25 (GeneID 7597),3,0.0255,82.4,-0.376,102
SLC35A2 (GeneID 7355),1,1.12,104,0.618,98.8
SLC35A2 (GeneID 7355),2,0.488,91.6,-0.439,115
SLC35A2 (GeneID 7355),3,0.42,90.2,-0.295,109

No new results follow: entries from further up.
gene knocked down,siRNA no.,"total luciferase, z-score","total luciferase, % of control","luciferase per cell, z-score","viable cells, % of control"
MRPS26 (GeneID 64949),1,-0.619,69.6,-0.918,99
MRPS26 (GeneID 64949),2,-0.572,70.5,0.186,75
MRPS26 (GeneID 64949),3,-1.86,44.8,-1.63,77

The list goes on.
gene knocked down,siRNA no.,"total luciferase, z-score","total luciferase, % of control","luciferase per cell, z-score","viable cells, % of control"
EIF4ENIF1 (GeneID 56478),1,-0.0567,80.8,0.233,84.9
EIF4ENIF1 (GeneID 56478),2,-0.827,65.4,-0.731,88.6
EIF4ENIF1 (GeneID 56478),3,-0.0466,81,0.0457,89.4
H3C15 (GeneID 333932),1,-1.98,42.6,-0.888,60.1
H3C15 (GeneID 333932),2,-0.945,63.1,-1.83,114
H3C15 (GeneID 333932),3,-2.02,41.8,-3.11,106
RTBDN (GeneID 83546),1,-1.33,55.5,-1.34,88.2
RTBDN (GeneID 83546),2,-1.29,56.3,-0.791,77.5
RTBDN (GeneID 83546),3,1.18,105,1.02,90
ALG5 (GeneID 29880),1,0.0556,83,-0.385,103
ALG5 (GeneID 29880),2,0.458,91,0.781,82.8
ALG5 (GeneID 29880),3,-0.85,65,0.213,68.6
ECHDC2 (GeneID 55268),1,-0.121,79.5,-0.174,93
ECHDC2 (GeneID 55268),2,-1.19,58.2,-1.64,100
ECHDC2 (GeneID 55268),3,0.0952,83.8,-0.46,106
CHAMP1 (GeneID 283489),1,0.818,98.2,1.49,74
CHAMP1 (GeneID 283489),2,0.55,92.8,0.24,97.4
CHAMP1 (GeneID 283489),3,0.0706,83.3,-0.861,117
